These are literature values, as cited in patent publication US5443842A, “Oral formulations of ubidecarenone in form of capsules” (Inverni Della Beffa Farmaceutici S.r.l., priority 1993, dated 1995).

Molecules are shown by their SMILES.

On to `COC1=C(OC)C(=O)C(C/C=C(\C)CC/C=C(\C)CC/C=C(\C)CC/C=C(\C)CC/C=C(\C)CC/C=C(\C)CC/C=C(\C)CC/C=C(\C)CC/C=C(\C)CCC=C(C)C)=C(C)C1=O` [Ubidecarenone], for which the Solubility in water entry was “practically insoluble in water”.
